The values that follow come from PubChem BioAssay AID192 (DTP/NCI, 2004).

This assay relates to BDF1 mice, B16 melanoma ip, median survival T/C. Description: NCI In Vivo Anticancer Drug Screen. Data for tumor model B16 Melanoma (intraperitoneal) in B6D2F1 (BDF1) mice. Particulars: T/C endpoint: median survival time, higher T/C = longer survival. Summed up: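 Survival or tumor size is measured after treatment of tumor-bearing mice and normalised to the vehicle-treated control group.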

Setting [1] is: dose: 3.13 mg/kg/injection, schedule: Q01DX009 (ip), vehicle: saline.
The mark [2] stands for this setting: dose: 6.25 mg/kg/injection, schedule: Q01DX009 (ip), vehicle: saline.
Where [3] appears, read: dose: 100.0 mg/kg/injection, schedule: Q01DX009 (ip), vehicle: saline.
Setting [4] is: dose: 200.0 mg/kg/injection, schedule: Q01DX009 (ip), vehicle: saline.
Where [5] appears, read: dose: 200.0 mg/kg/injection, schedule: Q04DX003 (ip), vehicle: saline with Tween-80.
[6] abbreviates: dose: 400.0 mg/kg/injection, schedule: Q01DX001 (ip), vehicle: water.
Setting [7] is: dose: 400.0 mg/kg/injection, schedule: Q01DX009 (ip), vehicle: saline with Tween-80.

The list does not hold the whole screen: it gathers tests that were run many times, whatever their T/C, doses with no T/C, and many T/C values between a quarter and a half above the control. Further doses and runs are listed elsewhere. T/C: endpoint of the treated group in % of that of the vehicle group. Some entries give survivors of the animals treated and no T/C: the source holds a T/C of zero for them, seemingly a mark for toxic or unscored doses. Some doses without a T/C left all or most animals alive at the check, yet need not have been tolerated: the source hardly ever lists a survival T/C far under the control, and the zero likely stands for such cases as well. Counts of survivors are from the toxicity check (mostly the fifth day) where no day follows; animals may have died later. Schedules are NCI's codes, taken here to give the interval after Q, in days (D) or hours (H), and the number of doses after X. Some doses were run more than once; the values are given in rising order. For survival time, this PubChem deposit counts one and a half times the control or more as active, and values a quarter to a half above the control carry no call in these data; other NCI protocols may use other cut-offs.

As for `NC(=S)N/N=C/c1cc(-c2cccc(N)c2)ccn1`, the T/C under setting [1] is 131 % of control; the T/C under setting [2] was 143 % of control; the T/C (dose: 9.4 mg/kg/injection, schedule: Q04DX003 (ip), vehicle: saline) is 138 % of control; the T/C (dose: 12.5 mg/kg/injection, schedule: Q01DX009 (ip), vehicle: saline with Tween-80, evaluated on day 45) is 133 % of control; the T/C (dose: 12.5 mg/kg/injection, schedule: Q01DX009 (ip), vehicle: saline with Tween-80, evaluated on day 60) was 134 % of control; the T/C (dose: 18.8 mg/kg/injection, schedule: Q04DX003 (ip), vehicle: saline) was 144 % of control. Also, the T/C was 138 % of control (dose: 25.0 mg/kg/injection, schedule: Q01DX009 (ip), vehicle: saline with Tween-80, evaluated on day 45); 128 and 133 % of control (dose: 25.0 mg/kg/injection, schedule: Q01DX009 (ip), vehicle: saline with Tween-80, evaluated on day 60); 144 % of control (dose: 50.0 mg/kg/injection, schedule: Q01DX009 (ip), vehicle: saline with Tween-80, evaluated on day 45); 131 and 147 % of control (dose: 50.0 mg/kg/injection, schedule: Q01DX009 (ip), vehicle: saline with Tween-80, evaluated on day 60); 148 % of control (dose: 50.0 mg/kg/injection, schedule: Q01DX009 (ip), vehicle: saline); 144 % of control (dose: 75.0 mg/kg/injection, schedule: Q01DX009 (ip), vehicle: saline with Tween-80).
As to `C=C1C(=O)OC2/C=C(\C)CC/C=C(/C=O)C(OC(=O)C(C)C)C(O)C12` (centres undefined), the survivor count runs as follows: (dose: 8.0 mg/kg/injection, schedule: Q01DX009 (ip), vehicle: saline with Tween-80) 5 of 6; (dose: 16.0 mg/kg/injection, schedule: Q01DX009 (ip), vehicle: saline with Tween-80) 6 of 10 and 4 of 6.
On to `[Cl][Pt+2][Cl].[NH-]C1CCCCC1.[NH-]C1CCCCC1`, for which the survivor count by setting is: (dose: 100.0 mg/kg/injection, schedule: Q01DX009 (ip), vehicle: Klucel (hydroxypropylcellulose) (HPC)) 10 of 10; (dose: 200.0 mg/kg/injection, schedule: Q01DX009 (ip), vehicle: Klucel (hydroxypropylcellulose) (HPC)) 10 of 10; (dose: 400.0 mg/kg/injection, schedule: Q01DX009 (ip), vehicle: Klucel (hydroxypropylcellulose) (HPC)) 10 of 10.
On to `CCCOP(OCCC)OCCC`, for which the survivor count by setting is: under setting [3], 10 of 10; under setting [4], 10 of 10.
As to `CCCCCCCCCC(=O)N(C)OC`, the survivor count runs as follows: (dose: 100.0 mg/kg/injection, schedule: Q04DX003 (ip), vehicle: saline with Tween-80) 10 of 10; under setting [5], 10 of 10; (dose: 400.0 mg/kg/injection, schedule: Q04DX003 (ip), vehicle: saline with Tween-80) 10 of 10.
In the case of `CC(=N\[O-])/C(C)=N/O.CC(=N\[O-])/C(C)=N/O.CC(=O)[O-].CC(=O)[O-].O.[Rh+2].[Rh+2]`, the T/C was 125 % of control under setting [1]; 133 % of control under setting [2]; 125 % of control (dose: 12.5 mg/kg/injection, schedule: Q01DX009 (ip), vehicle: saline).
As for `O=C(O)CCCC1CCCCC1.[Cu+2]`, the survivor count runs as follows: (dose: 25.0 mg/kg/injection, schedule: Q01DX009 (ip), vehicle: saline with Tween-80) 0 of 6; (dose: 50.0 mg/kg/injection, schedule: Q01DX009 (ip), vehicle: saline with Tween-80) 0 of 6.
For the compound `C/C=C/C=C/c1cc2cc3c(c(O)c2c(=O)[nH]1)C1(CC3)C(O)=c2c(=O)c3c(=O)cc(OC)c(=O)c=3c(=O)c2=C1O` (centres undefined), the survivor count is, setting by setting: (dose: 1.0 mg/kg/injection, schedule: Q01DX009 (ip), vehicle: DMSO) 10 of 10; (dose: 2.0 mg/kg/injection, schedule: Q01DX009 (ip), vehicle: DMSO) 0 of 10.
For `O=C(CNC(=O)Nc1ccc(C2=NCCN2)cc1)Nc1ccc(C2=NCCN2)cc1`, the survivor count by setting is: under setting [3], 0 of 6; under setting [4], 0 of 6; (dose: 400.0 mg/kg/injection, schedule: Q01DX009 (ip), vehicle: saline) 0 of 6.
Take `COC(=O)[C@H]1[C@H]2C[C@@H]3c4[nH]c5ccccc5c4CCN3C[C@H]2C[C@@H](OC(=O)c2cc(OC)c(OC)c(OC)c2)[C@@H]1OC`: the survivor count by setting is: (dose: 0.11 mg/kg/injection, schedule: Q01DX009 (ip), vehicle: Klucel (hydroxypropylcellulose) (HPC)) 10 of 10; (dose: 0.23 mg/kg/injection, schedule: Q01DX009 (ip), vehicle: Klucel (hydroxypropylcellulose) (HPC)) 10 of 10; (dose: 0.46 mg/kg/injection, schedule: Q01DX009 (ip), vehicle: Klucel (hydroxypropylcellulose) (HPC)) 9 of 10; (dose: 0.93 mg/kg/injection, schedule: Q01DX009 (ip), vehicle: Klucel (hydroxypropylcellulose) (HPC)) 10 of 10; (dose: 1.87 mg/kg/injection, schedule: Q01DX009 (ip), vehicle: Klucel (hydroxypropylcellulose) (HPC)) 10 of 10.
With `CCCCNC(C)C1(O)Cc2c(O)c3c(c(O)c2C(OC2CC(N)C(O)C(C)O2)C1)C(=O)c1c(OC)cccc1C3=O` (centres undefined), the T/C is 147 % of control (dose: 25.0 mg/kg/injection, schedule: Q01DX001 (ip), vehicle: water) and 133 % of control under setting [6]. Further, the survivor count under setting [6] is on record as 6 of 10.
For `CC(=O)NC1CCCCC1`, under setting [5], the T/C is 129 % of control.
On to `C=CCOCC(O)CN(C)c1ccccc1` (centres undefined), for which, under “dose: 200.0 mg/kg/injection, schedule: Q04DX003 (ip), vehicle: Klucel (hydroxypropylcellulose) (HPC)”, the survivor count is 10 of 10.
Consider `COCC12CCC(OC)C34C5CC6(O)C(OC)CC(OC(C)=O)(C5C6OC(=O)c5ccccc5)C(C(OC)C13)C4N(C)C2` (centres undefined), for which the survivor count was 10 of 10 (dose: 0.13 mg/kg/injection, schedule: Q01DX009 (ip), vehicle: Klucel (hydroxypropylcellulose) (HPC)); 9 of 10 (dose: 0.25 mg/kg/injection, schedule: Q01DX009 (ip), vehicle: Klucel (hydroxypropylcellulose) (HPC)); 10 of 10 (dose: 0.5 mg/kg/injection, schedule: Q01DX009 (ip), vehicle: Klucel (hydroxypropylcellulose) (HPC)); 10 of 10 (dose: 1.0 mg/kg/injection, schedule: Q01DX009 (ip), vehicle: Klucel (hydroxypropylcellulose) (HPC)).
As for `CCCN1COC(OCC)C(C)(C)C1` (centres undefined), under setting [7], the survivor count is 0 of 10.
For the compound `CCCCCCCCCCCCCCCC(=O)N(C/C=C/CN(C(=O)CCCCCCCCCCCCCCC)C(C)CCCN(CC)CC)C(C)CCCN(CC)CC` (centres undefined), the survivor count is listed as 10 of 10 (dose: 25.0 mg/kg/injection, schedule: Q01DX009 (ip), vehicle: other) and 5 of 10 (dose: 50.0 mg/kg/injection, schedule: Q01DX009 (ip), vehicle: other).
With `O=C1NC(=O)C(=Cc2cc3c(cc2Br)OCO3)C(=O)N1`, the survivor count is 9 of 10 and 10 of 10 (dose: 100.0 mg/kg/injection, schedule: Q01DX009 (ip), vehicle: saline with Tween-80); 9 of 10 (dose: 200.0 mg/kg/injection, schedule: Q01DX009 (ip), vehicle: saline with Tween-80); 3 of 10 under setting [7].
Take `CC(CN(C)C)CN1c2ccccc2CCc2ccccc21` (centres undefined): the survivor count (dose: 35.0 mg/kg/injection, schedule: Q01DX009 (ip), vehicle: saline) is given as 10 of 10.
For the compound `C=CCOc1cccc(OCC=C)c1C`, the survivor count under setting [7] is on record as 10 of 10.
